From the supplement of paper PMC10077471
Whole data set: some 1,900 compounds, median “excess over highest single agent (ExcessHSA) synergy score, 6x6 matrix” near -83, cut for the lowest 2% near -370. Some of the results follow.

test system: NCI-H446; test: excess over highest single agent (ExcessHSA) synergy score, 6x6 matrix; higher = less synergy (more negative = stronger synergy); details: 72 h; CellTiter-Glo viability

SMILES | excess over highest single agent
Nc1c2c(nc3ccccc13)CCCC2 + Cc1sc2c(c1C)C(c1ccc(Cl)cc1)=N[C@@H](CC(=O)OC(C)(C)C)c1nnc(C)n1-2 [NCGC00250412-19] | -80.3
CCCCC(CC)COC(=O)C(C#N)=C(c1ccccc1)c1ccccc1 (configuration not stated) + Cc1sc2c(c1C)C(c1ccc(Cl)cc1)=N[C@@H](CC(=O)OC(C)(C)C)c1nnc(C)n1-2 [NCGC00250412-19] | -86.5
COc1ccc2c(c1)c(C1=C(c3c[nH]c4ccccc34)C(=O)NC1=O)cn2CCCN(C)C + Cc1sc2c(c1C)C(c1ccc(Cl)cc1)=N[C@@H](CC(=O)OC(C)(C)C)c1nnc(C)n1-2 [NCGC00250412-19] | 146
O=c1cc(-c2ccccc2)oc2cc(O)cc(O)c12 + Cc1sc2c(c1C)C(c1ccc(Cl)cc1)=N[C@@H](CC(=O)OC(C)(C)C)c1nnc(C)n1-2 [NCGC00250412-19] | -97.1
O=C(CCCCCCC(=O)Nc1ccccc1)NO + Cc1sc2c(c1C)C(c1ccc(Cl)cc1)=N[C@@H](CC(=O)OC(C)(C)C)c1nnc(C)n1-2 [NCGC00250412-19] | -29.9
NC[C@H]1O[C@H](O[C@H]2[C@H](O)[C@@H](O[C@H]3O[C@H](CO)[C@@H](O)[C@H](N)[C@H]3O)[C@H](N)C[C@@H]2N)[C@H](O)[C@@H](O)[C@@H]1O + Cc1sc2c(c1C)C(c1ccc(Cl)cc1)=N[C@@H](CC(=O)OC(C)(C)C)c1nnc(C)n1-2 [NCGC00250412-19] | -44.7
CC(C)[C@H]1C(=O)N[C@H](CO)Cc2c[nH]c3cccc(c23)N1C + Cc1sc2c(c1C)C(c1ccc(Cl)cc1)=N[C@@H](CC(=O)OC(C)(C)C)c1nnc(C)n1-2 [NCGC00250412-19] | -180
COc1ccc(S(=O)(=O)Nc2cccnc2Nc2ccc(O)cc2)cc1 + Cc1sc2c(c1C)C(c1ccc(Cl)cc1)=N[C@@H](CC(=O)OC(C)(C)C)c1nnc(C)n1-2 [NCGC00250412-19] | -161
O=C(Nc1cc2cc[nH]c2cn1)c1ccccc1 + Cc1sc2c(c1C)C(c1ccc(Cl)cc1)=N[C@@H](CC(=O)OC(C)(C)C)c1nnc(C)n1-2 [NCGC00250412-19] | -102
Cc1ccc(NC(=O)c2cccc(N(C)C)c2)cc1NC(=O)c1ccc(O)cc1 + Cc1sc2c(c1C)C(c1ccc(Cl)cc1)=N[C@@H](CC(=O)OC(C)(C)C)c1nnc(C)n1-2 [NCGC00250412-19] | -6.49
O=C1NCCc2[nH]c(-c3ccncc3)cc21 + Cc1sc2c(c1C)C(c1ccc(Cl)cc1)=N[C@@H](CC(=O)OC(C)(C)C)c1nnc(C)n1-2 [NCGC00250412-19] | 14.8
CCNC(=O)CCC/C=C\C[C@@H]1[C@@H](/C=C/[C@@H](O)CCc2ccccc2)[C@H](O)C[C@@H]1O + Cc1sc2c(c1C)C(c1ccc(Cl)cc1)=N[C@@H](CC(=O)OC(C)(C)C)c1nnc(C)n1-2 [NCGC00250412-19] | 17.4
C/C=C/C[C@@H](C)C(=O)[C@H]1C(=O)N[C@@H](C(C)C)C(=O)N(C)CC(=O)N(C)[C@@H](CC(C)C)C(=O)N[C@@H](C(C)C)C(=O)N(C)[C@@H](CC(C)C)C(=O)N[C@@H](C)C(=O)N[C@H](C)C(=O)N(C)[C@@H](CC(C)C)C(=O)N(C)[C@@H](CC(C)C)C(=O)N(C)[C@@H](C(C)C)C(=O)N1C + Cc1sc2c(c1C)C(c1ccc(Cl)cc1)=N[C@@H](CC(=O)OC(C)(C)C)c1nnc(C)n1-2 [NCGC00250412-19] | -166
CC1(C)O[C@@H]2C[C@H]3[C@@H]4CCC5=CC(=O)C=C[C@]5(C)[C@H]4[C@@H](O)C[C@]3(C)[C@]2(C(=O)CO)O1 + Cc1sc2c(c1C)C(c1ccc(Cl)cc1)=N[C@@H](CC(=O)OC(C)(C)C)c1nnc(C)n1-2 [NCGC00250412-19] | 26.7
O=C(O)c1ccc2c(c1)nc(Nc1cccc(Cl)c1)c1ccncc12 + Cc1sc2c(c1C)C(c1ccc(Cl)cc1)=N[C@@H](CC(=O)OC(C)(C)C)c1nnc(C)n1-2 [NCGC00250412-19] | -118
c1cc2c(cc1[C@H]1OC[C@H]3[C@@H]1CO[C@@H]3c1ccc3c(c1)OCO3)OCO2 + Cc1sc2c(c1C)C(c1ccc(Cl)cc1)=N[C@@H](CC(=O)OC(C)(C)C)c1nnc(C)n1-2 [NCGC00250412-19] | -8.93
COc1cc(Cl)cn2c(-c3cccc(NC4CNC4)n3)cnc12 + Cc1sc2c(c1C)C(c1ccc(Cl)cc1)=N[C@@H](CC(=O)OC(C)(C)C)c1nnc(C)n1-2 [NCGC00250412-19] | -67.2
C[C@]1(c2nc3c(C(N)=O)cccc3[nH]2)CCCN1 + Cc1sc2c(c1C)C(c1ccc(Cl)cc1)=N[C@@H](CC(=O)OC(C)(C)C)c1nnc(C)n1-2 [NCGC00250412-19] | -166
CC(=O)N[C@@H](CS)C(=O)O + Cc1sc2c(c1C)C(c1ccc(Cl)cc1)=N[C@@H](CC(=O)OC(C)(C)C)c1nnc(C)n1-2 [NCGC00250412-19] | 1.49

SMILES | excess over highest single agent
CCCn1c(=O)c2nc(C34CC5CC(CC3C5)C4)[nH]c2n(CCC)c1=O + Cc1sc2c(c1C)C(c1ccc(Cl)cc1)=N[C@@H](CC(=O)OC(C)(C)C)c1nnc(C)n1-2 [NCGC00250412-19] | -113
O=C(O)Cc1cccc(OCCCN(Cc2cccc(C(F)(F)F)c2Cl)CC(c2ccccc2)c2ccccc2)c1 + Cc1sc2c(c1C)C(c1ccc(Cl)cc1)=N[C@@H](CC(=O)OC(C)(C)C)c1nnc(C)n1-2 [NCGC00250412-19] | -42.3
O=c1cc(-c2ccccc2)oc2cc(O)c(O)c(O)c12 + Cc1sc2c(c1C)C(c1ccc(Cl)cc1)=N[C@@H](CC(=O)OC(C)(C)C)c1nnc(C)n1-2 [NCGC00250412-19] | -87.8
COc1cc(C2Oc3cc([C@H]4Oc5cc(O)cc(O)c5C(=O)[C@@H]4O)ccc3OC2CO)ccc1O (some centres not stated) + Cc1sc2c(c1C)C(c1ccc(Cl)cc1)=N[C@@H](CC(=O)OC(C)(C)C)c1nnc(C)n1-2 [NCGC00250412-19] | -159
CCNC(=O)Nc1ccc2ncc(Nc3ccc(C)cc3)nc2n1 + Cc1sc2c(c1C)C(c1ccc(Cl)cc1)=N[C@@H](CC(=O)OC(C)(C)C)c1nnc(C)n1-2 [NCGC00250412-19] | 105
CC[C@H](C)C(=O)O[C@H]1C[C@@H](C)C=C2C=C[C@H](C)[C@H](CC[C@@H]3C[C@@H](O)CC(=O)O3)[C@H]21 + Cc1sc2c(c1C)C(c1ccc(Cl)cc1)=N[C@@H](CC(=O)OC(C)(C)C)c1nnc(C)n1-2 [NCGC00250412-19] | -89.4
Clc1ccc(C(Cn2ccnc2)OCc2ccc(Sc3ccccc3)cc2)c(Cl)c1 (configuration not stated) + Cc1sc2c(c1C)C(c1ccc(Cl)cc1)=N[C@@H](CC(=O)OC(C)(C)C)c1nnc(C)n1-2 [NCGC00250412-19] | -35.3
COc1cccc2cc(-c3nc([C@H]4CC[C@H](C(=O)O)CC4)n4ncnc(N)c34)[nH]c12 + Cc1sc2c(c1C)C(c1ccc(Cl)cc1)=N[C@@H](CC(=O)OC(C)(C)C)c1nnc(C)n1-2 [NCGC00250412-19] | -255
O=C1CCC[C@@H]2[C@H]3CCC[N+]4([O-])CCC[C@@H](CN12)[C@@H]34 (some centres not stated) + Cc1sc2c(c1C)C(c1ccc(Cl)cc1)=N[C@@H](CC(=O)OC(C)(C)C)c1nnc(C)n1-2 [NCGC00250412-19] | -73.2
CC(C)n1c(/C=C/C(O)CC(O)CC(=O)O)c(-c2ccc(F)cc2)c2ccccc21 (configuration not stated) + Cc1sc2c(c1C)C(c1ccc(Cl)cc1)=N[C@@H](CC(=O)OC(C)(C)C)c1nnc(C)n1-2 [NCGC00250412-19] | -43.4
O=c1ccn([C@@H]2O[C@H](CO)[C@@H](O)[C@H]2O)c(=O)[nH]1 + Cc1sc2c(c1C)C(c1ccc(Cl)cc1)=N[C@@H](CC(=O)OC(C)(C)C)c1nnc(C)n1-2 [NCGC00250412-19] | -93.4
CC(=O)NC(C)c1ccc(Oc2ccc(OC(C)C)cc2)cc1 (configuration not stated) + Cc1sc2c(c1C)C(c1ccc(Cl)cc1)=N[C@@H](CC(=O)OC(C)(C)C)c1nnc(C)n1-2 [NCGC00250412-19] | -47.6
COc1ccc2c(c1)CC[C@H](CN(C)CC(=O)O)[C@@H]2c1ccccc1 + Cc1sc2c(c1C)C(c1ccc(Cl)cc1)=N[C@@H](CC(=O)OC(C)(C)C)c1nnc(C)n1-2 [NCGC00250412-19] | -220
CCCCNc1cc(C(=O)O)cc(S(N)(=O)=O)c1Oc1ccccc1 + Cc1sc2c(c1C)C(c1ccc(Cl)cc1)=N[C@@H](CC(=O)OC(C)(C)C)c1nnc(C)n1-2 [NCGC00250412-19] | -60.7
COC(=O)N[C@H](C(=O)N[C@@H](Cc1ccccc1)[C@@H](O)CN(Cc1ccc(-c2ccccn2)cc1)NC(=O)[C@@H](NC(=O)OC)C(C)(C)C)C(C)(C)C + Cc1sc2c(c1C)C(c1ccc(Cl)cc1)=N[C@@H](CC(=O)OC(C)(C)C)c1nnc(C)n1-2 [NCGC00250412-19] | -165
CNC[C@H](O)[C@@H](O)[C@H](O)[C@H](O)CO + Cc1sc2c(c1C)C(c1ccc(Cl)cc1)=N[C@@H](CC(=O)OC(C)(C)C)c1nnc(C)n1-2 [NCGC00250412-19] | -244
NCCCC(O)(P(=O)(O)O)P(=O)(O)O + Cc1sc2c(c1C)C(c1ccc(Cl)cc1)=N[C@@H](CC(=O)OC(C)(C)C)c1nnc(C)n1-2 [NCGC00250412-19] | -12.1
COC(=O)Nc1ccc(-c2nc(N3CCOCC3)c3cnn(C4CCN(C(=O)OC)CC4)c3n2)cc1 + Cc1sc2c(c1C)C(c1ccc(Cl)cc1)=N[C@@H](CC(=O)OC(C)(C)C)c1nnc(C)n1-2 [NCGC00250412-19] | -352

Part of the list above, field by field.
CC(C)n1c(/C=C/C(O)CC(O)CC(=O)O)c(-c2ccc(F)cc2)c2ccccc21 (configuration not stated) + Cc1sc2c(c1C)C(c1ccc(Cl)cc1)=N[C@@H](CC(=O)OC(C)(C)C)c1nnc(C)n1-2 [NCGC00250412-19]
  excess over highest single agent: -43.4
O=c1ccn([C@@H]2O[C@H](CO)[C@@H](O)[C@H]2O)c(=O)[nH]1 + Cc1sc2c(c1C)C(c1ccc(Cl)cc1)=N[C@@H](CC(=O)OC(C)(C)C)c1nnc(C)n1-2 [NCGC00250412-19]
  excess over highest single agent: -93.4
